{"source": "patent US20230085439A1", "key": {"[1]": {"molecular_target": "Ply (Streptococcus pneumoniae)", "test": "condition: about 20 µg/mL (last point at log10 about 1.3); ELISA on coated antigen, mAb titrated"}, "[2]": {"molecular_target": "hMPV B2 F-GCN4 dFP 6R (human metapneumovirus)", "test": "ELISA, referred back to"}, "[3]": {"molecular_target": "hMPV B2 F-GCN4 dFP 6R (human metapneumovirus)", "test": "ELISA"}}, "note": "No constants are given. Whether binding was seen depends on the method and setting. For some assays here: Binding calls can cover weak binding; strength is not graded here."}
{"binder": "MPV314 (antibody, V domains shown) VH: QVQLVQSGGGVVQPGRSLRLSCAASGFSFSDYGMDWVRQAPGKGLEWVAVISYDGSNQYYADSVKGRFTVSRDNSKNTVYLQMNSLRAEDTAVYFCAKDESRRYYYSSGIHSHWGQGTLVTVSS VL: DIVMTQSPATLSVSPGERATLSCRASQSVSRNLAWYQQKPGQAPRLLIFGASTRATGIPARFSGSASGTEFTLTISSLQSEDFAVYYCHQYNYWPPGTFGQGTRLEIK", "values": [{"measurement": "binding", "setting": "[1]", "value": "no binding"}]}
{"binder": "MPV458 (antibody, V domains shown) VH: QGKLVESGGGVIQPGRSLRLSCAASGFDFSRYGLHWVRQAPGKGLEWVAVIVYAGSNKYYADSVKGRFTISKDNSKNTMHLQMSDLRTEDTAVYYCARDQAFDLWGQGTMVTVSS VL: DIQMTQSPASLSASVGDRVTITCQASQGISRSVNWYQQKPGKAPKLLIFDASHLERGVPSRFSGSGYGTDFTFTISSLQPEDIATYYCQQYDNLRISFGQGTRLEIK", "values": [{"measurement": "binding", "setting": "[2]", "value": "binds"}, {"measurement": "binding", "setting": "[3]", "value": "binds"}]}
{"binder": "MPV196 (antibody, V domains shown) VH: QVQLQQWGAGLLKPSETLSLTCAVYGGSFSGYSWTWIRQPPGKGLEWIGEINHSGSTNYNPSLKSRVTISIDTSRNQFSLKLISVTAADTAVYYCARGVRGGYNLWHFDVWGQGTLVTVSS VL: SYELSQSPSVSVSPGQTARITCSGDKLGNKYASWYQQKPGQSPVLVIYQDDKRPSGIPERFSGSNSGNTATLTIGGTQAMDEADYSCQAWDGRTAVVFGGGTKLTVL", "values": [{"measurement": "binding", "setting": "[1]", "value": "no binding"}]}
{"binder": "MPV364 (antibody, V domains shown) VH: QVQLVQSGAEVKKPGASVKVSCKASGYTFTHDSIHWVRQAPGQRLEWMGWINVGNGDTKSSQKFQDRLTITRDTSANTAYMEVRSLKYEDTAMYFCARVDQYCIGGVCYGGKNWFDPWGQGTLVTVSS VL: SYELNQPPSVSVAPGQTAMITCGGYYVGVKSLHWYQQKAGQAPVLVVHDDSDRPSGIPERFSGSKSGDTATLIISRVEAGDEADYYCQVWDRDSDHPYVFGTGTTVTVL", "values": [{"measurement": "binding", "setting": "[1]", "value": "no binding"}]}
